Binding data for four substances are collected here from paper PMC12317070.

Sequences of proteins named here, by UniProt entry; tags and fusion partners are left off. A change or cut given only in a name is not applied to a line headed by its entry. Residues count along the entry.
UniProt O95721: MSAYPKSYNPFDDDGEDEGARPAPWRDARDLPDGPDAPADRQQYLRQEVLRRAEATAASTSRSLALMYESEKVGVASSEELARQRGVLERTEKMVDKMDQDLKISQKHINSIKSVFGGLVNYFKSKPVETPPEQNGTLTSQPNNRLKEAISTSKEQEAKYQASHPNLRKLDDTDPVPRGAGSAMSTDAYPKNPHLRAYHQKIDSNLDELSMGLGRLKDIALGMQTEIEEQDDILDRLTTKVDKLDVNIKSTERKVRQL
UniProt P56962: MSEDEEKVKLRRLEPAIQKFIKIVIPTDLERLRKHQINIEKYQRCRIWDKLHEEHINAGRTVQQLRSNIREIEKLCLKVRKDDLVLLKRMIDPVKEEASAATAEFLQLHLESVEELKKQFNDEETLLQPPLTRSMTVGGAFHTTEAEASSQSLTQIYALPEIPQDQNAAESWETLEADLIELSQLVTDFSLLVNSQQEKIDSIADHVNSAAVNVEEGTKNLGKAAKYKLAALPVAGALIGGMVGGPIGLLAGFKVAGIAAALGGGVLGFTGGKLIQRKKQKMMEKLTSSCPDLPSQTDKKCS
GST-STX17 (amino acids 1-224): residues 1-224 of P56962
UniProt Q14457: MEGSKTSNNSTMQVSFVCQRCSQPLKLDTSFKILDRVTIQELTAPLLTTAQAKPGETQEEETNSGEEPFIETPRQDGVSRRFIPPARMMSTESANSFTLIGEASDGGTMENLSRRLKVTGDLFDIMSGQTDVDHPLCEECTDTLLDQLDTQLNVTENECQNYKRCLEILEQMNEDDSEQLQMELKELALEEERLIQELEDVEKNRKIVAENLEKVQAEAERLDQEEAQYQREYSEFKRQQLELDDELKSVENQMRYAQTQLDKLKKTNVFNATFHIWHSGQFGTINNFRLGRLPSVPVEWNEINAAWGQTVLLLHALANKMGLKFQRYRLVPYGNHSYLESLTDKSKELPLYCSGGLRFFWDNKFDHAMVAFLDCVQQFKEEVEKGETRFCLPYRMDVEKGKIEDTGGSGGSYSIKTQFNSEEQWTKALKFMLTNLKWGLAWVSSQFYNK
UniProt Q8TDY2: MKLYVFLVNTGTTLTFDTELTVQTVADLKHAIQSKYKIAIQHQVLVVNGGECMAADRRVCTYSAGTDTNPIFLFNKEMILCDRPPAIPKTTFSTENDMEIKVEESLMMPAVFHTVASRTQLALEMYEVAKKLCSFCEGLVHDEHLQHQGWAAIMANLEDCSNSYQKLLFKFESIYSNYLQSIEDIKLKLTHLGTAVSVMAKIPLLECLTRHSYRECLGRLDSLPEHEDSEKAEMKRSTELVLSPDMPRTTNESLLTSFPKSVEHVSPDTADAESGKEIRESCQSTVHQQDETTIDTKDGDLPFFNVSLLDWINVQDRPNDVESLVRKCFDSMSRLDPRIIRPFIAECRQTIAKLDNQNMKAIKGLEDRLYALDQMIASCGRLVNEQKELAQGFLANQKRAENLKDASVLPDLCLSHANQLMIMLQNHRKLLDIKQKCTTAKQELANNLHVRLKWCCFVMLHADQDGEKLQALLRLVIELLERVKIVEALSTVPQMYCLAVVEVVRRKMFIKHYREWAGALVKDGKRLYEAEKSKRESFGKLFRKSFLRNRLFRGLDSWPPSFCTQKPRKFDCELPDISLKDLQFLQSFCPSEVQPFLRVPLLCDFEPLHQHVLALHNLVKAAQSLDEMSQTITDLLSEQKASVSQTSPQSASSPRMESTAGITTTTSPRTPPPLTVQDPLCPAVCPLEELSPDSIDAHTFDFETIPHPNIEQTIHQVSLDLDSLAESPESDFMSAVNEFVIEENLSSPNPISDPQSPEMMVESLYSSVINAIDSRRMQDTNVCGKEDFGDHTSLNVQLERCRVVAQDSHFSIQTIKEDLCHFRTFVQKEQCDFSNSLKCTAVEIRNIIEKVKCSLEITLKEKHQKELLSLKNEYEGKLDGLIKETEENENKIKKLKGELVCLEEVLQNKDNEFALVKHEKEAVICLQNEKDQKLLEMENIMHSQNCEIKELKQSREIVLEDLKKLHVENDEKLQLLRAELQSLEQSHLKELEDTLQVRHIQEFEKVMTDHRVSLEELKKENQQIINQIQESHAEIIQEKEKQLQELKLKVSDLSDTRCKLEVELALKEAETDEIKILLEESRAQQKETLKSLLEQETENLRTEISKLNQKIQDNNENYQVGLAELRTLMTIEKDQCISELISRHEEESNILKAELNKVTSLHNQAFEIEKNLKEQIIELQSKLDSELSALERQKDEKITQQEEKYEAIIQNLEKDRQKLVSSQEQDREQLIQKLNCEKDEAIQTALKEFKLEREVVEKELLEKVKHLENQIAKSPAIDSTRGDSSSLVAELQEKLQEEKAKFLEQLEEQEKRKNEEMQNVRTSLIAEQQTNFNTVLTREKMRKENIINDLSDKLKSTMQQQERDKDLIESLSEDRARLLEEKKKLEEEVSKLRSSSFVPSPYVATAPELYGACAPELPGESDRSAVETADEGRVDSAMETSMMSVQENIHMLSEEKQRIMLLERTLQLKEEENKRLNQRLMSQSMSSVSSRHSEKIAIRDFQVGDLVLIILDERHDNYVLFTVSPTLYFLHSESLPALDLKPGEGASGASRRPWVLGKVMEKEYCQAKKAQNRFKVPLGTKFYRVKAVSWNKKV
UniProt Q6ZNE5: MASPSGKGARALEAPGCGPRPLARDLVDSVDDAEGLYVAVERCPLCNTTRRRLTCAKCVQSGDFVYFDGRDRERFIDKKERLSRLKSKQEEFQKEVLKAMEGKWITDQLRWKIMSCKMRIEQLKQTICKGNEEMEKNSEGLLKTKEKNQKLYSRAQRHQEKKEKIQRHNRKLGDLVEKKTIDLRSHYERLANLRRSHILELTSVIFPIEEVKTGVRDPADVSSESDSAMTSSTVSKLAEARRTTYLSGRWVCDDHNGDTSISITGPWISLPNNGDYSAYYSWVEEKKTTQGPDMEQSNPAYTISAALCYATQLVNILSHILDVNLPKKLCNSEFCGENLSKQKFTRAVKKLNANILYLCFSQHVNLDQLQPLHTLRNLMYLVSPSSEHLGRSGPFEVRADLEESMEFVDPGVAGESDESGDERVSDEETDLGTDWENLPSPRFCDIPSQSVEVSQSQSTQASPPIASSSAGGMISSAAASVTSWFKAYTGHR

These are yes or no findings as the source states them, for the method shown. Binding seen in cells or lysates may run through a third protein. Some binding calls cover weakened binding; strength is not graded here.

The target of assay [1] is SNAP29 (untagged, purified) (UniProt O95721). In words: co-IP; only the target purified.
The target in assay [2] is GST-STX17 (amino acids 1-224) (UniProt P56962). In words: pull-down; only the target purified.

As for “STX17 (endogenous) (from UniProt P56962 1-302)”, the binding result in assay [1] is listed as “binds”. With Beclin1 (from UniProt Q14457 1-450), the binding entry in assay [2] is listed as “no binding”. FIP200 (from UniProt Q8TDY2 1-1594): in assay [2], the binding result was “no binding”. With “ATG14L (endogenous) (from UniProt Q6ZNE5 1-492)”, the binding result in assay [1] was “binds”.
